Among the data in PubChem BioAssay (NCATS) are max response values, retold here.

The list shows a part of the results. These are further read-outs of the screen, such as a control signal, another cell line or another target. No call is given for them. The list favours compounds with an active or inconclusive main result.
% is scaled to controls: 0 for no effect and ±100 for the full control effect.

The assay can be described thus: qHTS assay for small molecule antagonists of retinoid X receptor alpha signaling (AID 588546).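 Also: cells stimulated with 9-cis-retinoic acid as agonist.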 As to conditions: HEK293T RXRa-UAS-bla, beta-lactamase ratio, antagonist mode; measured here: W530 green channel, cytotoxicity proxy. The essentials: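 Beta-lactamase reporter inhibition, read as CCF4 fluorescence ratio (ex 405, em 460/530 nm) after 2 h at RT. HEK293T UAS-bla cells, 2500/well, were stimulated with 9-cis-RA at 500 or 100 nM final alongside test compound for 18 h at 37 C.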
In general terms: Quantitative high-throughput screening tests each substance at several concentrations.
Regarding `CCCCCCCCCCCCCCCCCC(N)=O`, the max response stood at 4.05%.
For `CCCCC(CC)COC(=O)CC(C(=O)OCC(CC)CCCC)S(=O)(=O)O` (centres undefined) the value was -1.1%; for `CCN(CC)c1ccc2c(C)cc(=O)oc2c1`, 59.5%.
For the compound `CN(C)c1ccc(C(c2ccccc2)c2ccc(N(C)C)cc2)cc1`, the max response is -21.2%.
